Some of the results follow.

This passage reports binding signal results from PMC5996148.

Experiment in all cases: protein microarray (ProtoArray v5.0), streptavidin-Alexa Fluor 647
Conditions in all cases: 3'-biotin; 20 mM Tris (pH 7.5), 5 mM MgCl2, 100 mM KCl, 0.1% Tween-20, A/T-rich and random oligonucleotide blockers; temperature not stated; high values mean tight binding

Assay [1] concerns Zinc finger CCCH domain-containing protein 7A (human).
The subject of assay [2] is Zinc finger FYVE domain-containing protein 27 (human).
Assay [3] relates to Zinc finger and SCAN domain-containing protein 2 (human).
In assay [4] the test system is Zinc finger protein 654 (human).
Assay [5] concerns Zinc finger protein 655 (human).
The subject of assay [6] is Zinc finger protein ZXDC (human).
Assay [7] relates to Zinc finger protein castor homolog 1 (human).
The subject of assay [8] is Zinc transporter 7 (human).
In assay [9] the test system is Zinc transporter ZIP1 (human).
In assay [10] the test system is Zinc transporter ZIP11 (human).
Assay [11] deals with cAMP-dependent protein kinase inhibitor gamma (human).
Assay [12] concerns cAMP-dependent protein kinase type I-beta regulatory subunit (human).
Assay [13] deals with cAMP-dependent protein kinase type II-beta regulatory subunit (human).
The test system of assay [14] is cDNA FLJ30744 fis, clone FEBRA2000378. (human).
Assay [15] deals with cDNA clone IMAGE:2906290, complete cds (human).
The subject of assay [16] is cDNA clone IMAGE:3892258 (human).
Assay [17] concerns cDNA clone IMAGE:3928921, partial cds (human).
Assay [18] concerns cDNA clone IMAGE:3949276, partial cds (human).
The subject of assay [19] is cDNA clone IMAGE:4292790 (human).
For assay [20], the system named is cDNA clone IMAGE:4396549 (human).

As to “GGGAGGCTGAGGCAGG [G4-1 biotinylated (PQS2)]”, the binding signal in assay [1] was -0.323 z-score; in assay [2], -0.248 z-score; in [3] it was -0.348 z-score; in [4], -0.28 z-score; in assay [5], -0.362 z-score; in assay [6], -0.321 z-score. In addition, the binding signal is -0.354 z-score in assay [7]; -0.34 z-score in [8]; -0.325 z-score in [9]; -0.328 z-score in [10]; -0.359 z-score in assay [11]; -0.36 z-score in assay [12]. Further, the binding signal is -0.351 z-score in assay [13]; -0.342 z-score in assay [14]; -0.355 z-score in assay [15]; -0.305 z-score in [16]; -0.288 z-score in [17]; -0.246 z-score in assay [18]. Also, the binding signal in assay [19] is -0.359 z-score; in [20], -0.363 z-score.
